Data as given in the supplement of paper PMC3334620.
Over roughly 33,000 sequences, “E-score (-0.5 to 0.5)” has its median near -8e-05; the highest 2% begin near 0.23. The list shows a part of the results.

The sequences below were run against T1, Nrg2 (UniProt P38082) (assay: PBM E-score (8-mer binding enrichment) (E-score (-0.5 to 0.5)); higher = stronger / more preferred TF binding). Conditions: protein concentration: 100 nM; construct: GST-full length.
T1 sequence: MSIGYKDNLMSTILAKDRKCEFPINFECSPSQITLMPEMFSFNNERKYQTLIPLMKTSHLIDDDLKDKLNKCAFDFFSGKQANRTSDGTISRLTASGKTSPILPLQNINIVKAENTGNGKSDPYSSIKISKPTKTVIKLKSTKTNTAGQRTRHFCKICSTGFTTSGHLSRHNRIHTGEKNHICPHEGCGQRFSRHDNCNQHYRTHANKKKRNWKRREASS
Method in brief: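 Universal all-10-mer Agilent arrays, fresh or stripped once, were converted to double-stranded form by primer extension. GST-tagged yeast transcription factors from PURExpress in vitro transcription/translation, full-length or DNA-binding domain only, were applied at about 100-200 nM and detected with fluorescent anti-GST. After masliner normalisation, the Universal PBM Analysis Suite scored each ungapped eight-base word together with its reverse complement by E-score.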
In the case of ATACCTAG, the “PBM E-score” value is reported as 0.16. In the case of CACCTTTA, the “PBM E-score” value is reported as -0.121. For GAGTTATC, the “PBM E-score” value was 0.153. For AGTGTGTA, the “PBM E-score” value was 0.101. In the case of CATCCCAC, the “PBM E-score” value is reported as -0.286. With GATTCAAA the “PBM E-score” value was -0.0297. For CAGAGCCG, the “PBM E-score” value was 0.0124. In the case of ACGCCCCG, the “PBM E-score” value is reported as 0.103. With CCTGACAC the “PBM E-score” value was 0.072. For CGGCGCCA, the “PBM E-score” value was 0.0132. GATAGTGC was tested, and the “PBM E-score” value was -0.0437. For ACTAATGG, the “PBM E-score” value was 0.145. For AATGTCCA, the “PBM E-score” value was -0.00033. CAAATTCA was tested, and the “PBM E-score” value was 0.0673. For CCACCCGC, the “PBM E-score” value was 0.0031. In the case of ACACCACT, the “PBM E-score” value is reported as 0.156. With AACAAGCT the “PBM E-score” value was 0.129. For GTTTGGGA, the “PBM E-score” value was 0.0768. With GTAATTGA the “PBM E-score” value was 0.00642. With GACCGGGA the “PBM E-score” value was -0.164. CTAGCTAC was tested, and the “PBM E-score” value was -0.177. In the case of ATGGCAAT, the “PBM E-score” value is reported as 0.00222. For GATTTACC, the “PBM E-score” value was 0.17. With ACCAGATG the “PBM E-score” value was -0.0443. In the case of CCAGACCC, the “PBM E-score” value is reported as 0.00894. With CAGATTCG the “PBM E-score” value was -0.0367. With AGGCGCCA the “PBM E-score” value was 0.176. In the case of GGTGACAC, the “PBM E-score” value is reported as -0.0741. In the case of CGGGCCCC, the “PBM E-score” value is reported as 0.119. CCGAGGGA was tested, and the “PBM E-score” value was -0.0812. With GGGACTCA the “PBM E-score” value was 0.0716. With TCGCACGA the “PBM E-score” value was -0.00406. In the case of AATCATGA, the “PBM E-score” value is reported as 0.167. For CCTGCTCC, the “PBM E-score” value was -0.163. For CCAAGTCA, the “PBM E-score” value was 0.057. In the case of AATAAAAG, the “PBM E-score” value is reported as 0.0308. For AGTTTGGC, the “PBM E-score” value was 0.0586. For TCAAGACA, the “PBM E-score” value was -0.0728. For AAAAACTT, the “PBM E-score” value was -0.148. In the case of CAGCGGGC, the “PBM E-score” value is reported as -0.0829. For CAAACAGG, the “PBM E-score” value was 0.0572. For CCGCCCCC, the “PBM E-score” value was -0.406. AATACAAG was tested, and the “PBM E-score” value was 0.296. In the case of CAGCTCCA, the “PBM E-score” value is reported as 0.00413. With CTCGAAAC the “PBM E-score” value was 0.134. With CACACGGG the “PBM E-score” value was 0.0131. AAGCAAAA was tested, and the “PBM E-score” value was 0.164. With GCTTCATA the “PBM E-score” value was -0.0128. CTGTGGGA was tested, and the “PBM E-score” value was -0.0261. With CAAATACA the “PBM E-score” value was 0.203. CTAATTTC was tested, and the “PBM E-score” value was 0.163. For GCGATAGC, the “PBM E-score” value was -0.0188. In the case of TAGAGAAA, the “PBM E-score” value is reported as 0.00442. For ATCGATCC, the “PBM E-score” value was -0.0823. In the case of CATGCGCG, the “PBM E-score” value is reported as 0.083. ATGCTTGG was tested, and the “PBM E-score” value was -0.167. For CTACGAGA, the “PBM E-score” value was 0.0426. ATTTTTCA was tested, and the “PBM E-score” value was 0.0246. AGAAGAGA was tested, and the “PBM E-score” value was -0.076. AAGAAGTC was tested, and the “PBM E-score” value was -0.108. CCTCCCCG was tested, and the “PBM E-score” value was -0.161. CGATCAAA was tested, and the “PBM E-score” value was 0.0805. With AGGAATTA the “PBM E-score” value was -0.0266. With TAACCGCA the “PBM E-score” value was 0.162. For AATGGAGC, the “PBM E-score” value was -0.0407. GGTCCGAC was tested, and the “PBM E-score” value was 0.0798. In the case of GGGTTAAA, the “PBM E-score” value is reported as -0.0823. CTTCTGTA was tested, and the “PBM E-score” value was -0.0717. In the case of CAGTTTCG, the “PBM E-score” value is reported as 0.0644. GCGACCGA was tested, and the “PBM E-score” value was 0.0891. AACTTCCC was tested, and the “PBM E-score” value was 0.013. For AAGTTTGC, the “PBM E-score” value was 0.174. CGAGAAAG was tested, and the “PBM E-score” value was -0.0958. For CGAGCAGA, the “PBM E-score” value was -0.0931. For AACGCACA, the “PBM E-score” value was 0.125. With GCCGCGGC the “PBM E-score” value was 0.193. For ATCATGGA, the “PBM E-score” value was -0.121. In the case of ATTTCCTC, the “PBM E-score” value is reported as -0.00403. For CATAGCGG, the “PBM E-score” value was -0.189. In the case of CGCTCTGC, the “PBM E-score” value is reported as -0.142. In the case of AACTCGTA, the “PBM E-score” value is reported as 0.0795. AGTAATGC was tested, and the “PBM E-score” value was -0.0951. AACCGAGA was tested, and the “PBM E-score” value was 0.128. In the case of ATTCGTAG, the “PBM E-score” value is reported as 0.094. For GTAAACCA, the “PBM E-score” value was 0.0504. CTAGCGGA was tested, and the “PBM E-score” value was -0.125. In the case of CACGCGGG, the “PBM E-score” value is reported as -0.0425. In the case of CGAGGCTC, the “PBM E-score” value is reported as -0.157. For CTCCCCAC, the “PBM E-score” value was -0.024. In the case of TCGACAAA, the “PBM E-score” value is reported as 0.184. In the case of GCTAGCCC, the “PBM E-score” value is reported as -0.15. For ATTTTCAG, the “PBM E-score” value was 0.0863. With GGTAAGAA the “PBM E-score” value was -0.188. In the case of ATCCTCTA, the “PBM E-score” value is reported as -0.119. With ATGGCTAG the “PBM E-score” value was -0.00759. With CATGATGC the “PBM E-score” value was -0.0448. For ATAGCTTA, the “PBM E-score” value was -0.0254. In the case of AACGTCGG, the “PBM E-score” value is reported as 0.0484. GCAGCCCC was tested, and the “PBM E-score” value was 0.0365. In the case of ATGGCGCG, the “PBM E-score” value is reported as 0.0257. CGTGTGCC was tested, and the “PBM E-score” value was -0.114. AGGAGACC was tested, and the “PBM E-score” value was -0.0497. With CCGTGCGC the “PBM E-score” value was 0.0769. GGATATTA was tested, and the “PBM E-score” value was 0.147. ACCTTACG was tested, and the “PBM E-score” value was -0.0237. In the case of CAACTCAG, the “PBM E-score” value is reported as 0.0285. AGATGCAT was tested, and the “PBM E-score” value was 0.0687. For CTGCGTAA, the “PBM E-score” value was 0.0115. With ACCAATAA the “PBM E-score” value was -0.036. With CACCCAAA the “PBM E-score” value was 0.035. In the case of CTTTTGCA, the “PBM E-score” value is reported as 0.121. For AAATTCAG, the “PBM E-score” value was 0.143. CCATAGGA was tested, and the “PBM E-score” value was -0.212. For TCCAGGAA, the “PBM E-score” value was -0.0583. ATCCAGAG was tested, and the “PBM E-score” value was 0.0996. In the case of AGTCAGCG, the “PBM E-score” value is reported as -0.0968. For GAACCACC, the “PBM E-score” value was 0.14. With GTGCAAAA the “PBM E-score” value was 0.04. With CTTGACGC the “PBM E-score” value was -0.123. With TCGCAAGA the “PBM E-score” value was -0.0263. For TCCCCTAA, the “PBM E-score” value was 0.146. For ACTGCTGC, the “PBM E-score” value was -0.0558. In the case of GTCGGAGA, the “PBM E-score” value is reported as -0.126. With ACCAGCTG the “PBM E-score” value was -0.069. In the case of ACTTGCGG, the “PBM E-score” value is reported as -0.214. For AAGTCAGG, the “PBM E-score” value was 0.117. TACGTACA was tested, and the “PBM E-score” value was 0.0349. In the case of CGCTAGGC, the “PBM E-score” value is reported as -0.269. GGCCCCAA was tested, and the “PBM E-score” value was -0.0979. With CATATCAA the “PBM E-score” value was 0.221. CAGGTATA was tested, and the “PBM E-score” value was 0.0141. In the case of AAGATAGA, the “PBM E-score” value is reported as 0.0579. For ACGTATTC, the “PBM E-score” value was -0.0109. AACGCTGG was tested, and the “PBM E-score” value was -0.0107. With AGCCGAAT the “PBM E-score” value was 0.0696. In the case of GCTTCGCC, the “PBM E-score” value is reported as -0.25. With CCTTATCG the “PBM E-score” value was -0.0611. With AGGTACGC the “PBM E-score” value was 0.0304. In the case of CTCAGGAG, the “PBM E-score” value is reported as -0.205. In the case of ACGGCTGC, the “PBM E-score” value is reported as -0.202. For CACCAGTG, the “PBM E-score” value was -0.0747. For CCATCGAA, the “PBM E-score” value was 0.0694. CAGACTAG was tested, and the “PBM E-score” value was -0.182. AGTTTCAC was tested, and the “PBM E-score” value was 0.0923. With CGCTGGAC the “PBM E-score” value was -0.0616. With CAGTTCCC the “PBM E-score” value was 0.0895. For ACTTCCGC, the “PBM E-score” value was 0.0384. AGAGTGGG was tested, and the “PBM E-score” value was -0.0376. ATAATCGA was tested, and the “PBM E-score” value was 0.0835. In the case of CAGTTGGG, the “PBM E-score” value is reported as -0.00385. For ACCGTCGC, the “PBM E-score” value was -0.0276. For ACGCATAC, the “PBM E-score” value was 0.0429. With CGCAGTCA the “PBM E-score” value was -0.0898. In the case of ACATGACT, the “PBM E-score” value is reported as -0.0833. For ACCTGTGG, the “PBM E-score” value was -0.0447. With CTATTGCA the “PBM E-score” value was -0.0631. With CAAATAGA the “PBM E-score” value was 0.296. For CTCCTAGA, the “PBM E-score” value was -0.0808. For AGAACCCT, the “PBM E-score” value was 0.199. For AGCTGTTA, the “PBM E-score” value was -0.165. For GTACAAGA, the “PBM E-score” value was 0.0045. ATTGAGCA was tested, and the “PBM E-score” value was 0.0434. In the case of AAGCTGTA, the “PBM E-score” value is reported as 0.118. For ACCCTCGA, the “PBM E-score” value was 0.125. AAAATGAC was tested, and the “PBM E-score” value was 0.0768. In the case of ACATTAAT, the “PBM E-score” value is reported as 0.0647. For CTTCAATC, the “PBM E-score” value was -0.0473. CGGAGGGC was tested, and the “PBM E-score” value was -0.142. With ATAACCCA the “PBM E-score” value was -0.0462. For GATTGTCA, the “PBM E-score” value was -0.0408. For CCGTTGGA, the “PBM E-score” value was -0.141. With AGAGAGAG the “PBM E-score” value was -0.166.
